# The other results are listed elsewhere or left out.
# Tests used:
# Test in all cases: glycan array binding signal (z-score within array); higher = stronger binding
# Conditions in all cases: glycan notation: IUPAC condensed, linker removed
# [1] = molecular target: Fuc(a1-2)[GalNAc(a1-3)]Gal(b1-4)[Fuc(a1-3)]GlcNAc
# Method in brief: (§1)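 The binding signal is a Z-score computed within each array. Data were drawn from 3228 arrays in the Consortium for Functional Glycomics database, restricted to those with a known protein sequence. Scores were averaged over arrays of the same protein sequence at different concentrations or buffers, and over linkers, and negative values can be taken as non-binding.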
# [2] = molecular target: Fuc(a1-2)[GalNAc(a1-4)]Gal(b1-4)GlcNAc
# Method in brief: as §1
# [3] = molecular target: Fuc(a1-2)[GalNAc(b1-3)]Gal
# Method in brief: as §1
# [4] = molecular target: Fuc(a1-3)GlcNAc
# Method in brief: as §1
# [5] = molecular target: Fuc(a1-3)[Gal(b1-4)]Glc6S
# Method in brief: as §1
# [6] = molecular target: Fuc(a1-3)[Gal(b1-4)]GlcNAc
# Method in brief: as §1
# [7] = molecular target: Fuc(a1-3)[Gal(b1-4)]GlcNAc(b1-2)Man(a1-3)[Fuc(a1-3)[Gal(b1-4)]GlcNAc(b1-2)Man(a1-6)]Man(b1-4)GlcNAc(b1-4)GlcNAc
# Method in brief: as §1
# [8] = molecular target: Fuc(a1-3)[Gal(b1-4)]GlcNAc(b1-2)Man(a1-6)[Gal(b1-4)GlcNAc(b1-2)Man(a1-3)]Man(b1-4)GlcNAc(b1-4)GlcNAc
# Method in brief: as §1
# [9] = molecular target: Fuc(a1-3)[Gal(b1-4)]GlcNAc(b1-3)Gal(b1-3)[Fuc(a1-4)]GlcNAc
# Method in brief: as §1
# [10] = molecular target: Fuc(a1-3)[Gal(b1-4)]GlcNAc(b1-4)Gal(b1-4)[Fuc(a1-3)]GlcNAc
# Method in brief: as §1
# [11] = molecular target: Fuc(a1-3)[Gal(b1-4)]GlcNAc(b1-4)Gal(b1-4)[Fuc(a1-3)]GlcNAc(b1-4)Gal(b1-4)[Fuc(a1-3)]GlcNAc
# Method in brief: as §1
# [12] = molecular target: Fuc(a1-3)[Gal(b1-4)]GlcNAc6S
# Method in brief: as §1
# [13] = molecular target: Fuc(a1-3)[Gal3S(b1-4)]Glc6S
# Method in brief: as §1
# [14] = molecular target: Fuc(a1-3)[Gal3S(b1-4)]GlcNAc
# Method in brief: as §1
# [15] = molecular target: Fuc(a1-3)[Gal3S(b1-4)]GlcNAc6S
# Method in brief: as §1
# [16] = molecular target: Fuc(a1-3)[GalNAc(b1-4)]GlcNAc
# Method in brief: as §1
# [17] = molecular target: Fuc(a1-4)GlcNAc
# Method in brief: as §1
# [18] = molecular target: Fuc(b1-3)GlcNAc
# Method in brief: as §1
# [19] = molecular target: Gal(a1-2)Gal
# Method in brief: as §1
# [20] = molecular target: Gal(a1-3)Gal
# Method in brief: as §1
# [21] = molecular target: Gal(a1-3)Gal(b1-3)GlcNAc
# Method in brief: as §1
# [22] = molecular target: Gal(a1-3)Gal(b1-4)Glc
# Method in brief: as §1
# [23] = molecular target: Gal(a1-3)Gal(b1-4)GlcNAc
# Method in brief: as §1
# [24] = molecular target: Gal(a1-3)Gal(b1-4)[Fuc(a1-3)]GlcNAc
# Method in brief: as §1
# [25] = molecular target: Gal(a1-3)GalNAc
# Method in brief: as §1
# [26] = molecular target: Gal(a1-3)[Gal(a1-4)]Gal(b1-4)GlcNAc
# Method in brief: as §1
# [27] = molecular target: Gal(a1-4)Gal(b1-4)Glc
# Method in brief: as §1
# [28] = molecular target: Gal(a1-4)Gal(b1-4)GlcNAc
# Method in brief: as §1
# [29] = molecular target: Gal(a1-4)GlcNAc
# Method in brief: as §1
# [30] = molecular target: Gal(a1-6)Glc
# Method in brief: as §1
# [31] = molecular target: Gal(b1-2)Gal
# Method in brief: as §1
# [32] = molecular target: Gal(b1-3)Gal
# Method in brief: as §1
# [33] = molecular target: Gal(b1-3)Gal(b1-4)GlcNAc
# Method in brief: as §1
# [34] = molecular target: Gal(b1-3)GalNAc
# Method in brief: as §1
# [35] = molecular target: Gal(b1-3)GalNAc(b1-3)Gal(a1-4)Gal(b1-4)Glc
# Method in brief: as §1
# [36] = molecular target: Gal(b1-3)GalNAc(b1-4)Gal(b1-4)Glc
# Method in brief: as §1
# [37] = molecular target: Gal(b1-3)GalNAc(b1-4)[Neu5Ac(a2-3)]Gal(b1-4)Glc
# Method in brief: as §1
# [38] = molecular target: Gal(b1-3)GlcNAc
# Method in brief: as §1
# [39] = molecular target: Gal(b1-3)GlcNAc(b1-2)Man(a1-3)[Gal(b1-3)GlcNAc(b1-2)Man(a1-6)]Man(b1-4)GlcNAc(b1-4)GlcNAc
# Method in brief: as §1
# [40] = molecular target: Gal(b1-3)GlcNAc(b1-3)Gal(b1-3)GlcNAc
# Method in brief: as §1
# [41] = molecular target: Gal(b1-3)GlcNAc(b1-3)Gal(b1-4)Glc
# Method in brief: as §1
# [42] = molecular target: Gal(b1-3)GlcNAc(b1-3)Gal(b1-4)GlcNAc
# Method in brief: as §1
# [43] = molecular target: Gal(b1-3)[Fuc(a1-4)]GlcNAc
# Method in brief: as §1
# [44] = molecular target: Gal(b1-3)[Fuc(a1-4)]GlcNAc(b1-3)Gal(b1-3)[Fuc(a1-4)]GlcNAc
# Method in brief: as §1
# [45] = molecular target: Gal(b1-3)[Fuc(a1-4)]GlcNAc(b1-3)Gal(b1-4)GlcNAc
# Method in brief: as §1
binder,measurement,setting,value
"SLLPI (Mus musculus), Q9D9X8 (protein) MGICMSMYTQVLVPVDADGDHHILWSRFYERWGSCFNPCAGLVNCLPPHSSALYLCHRMEARSRAPRRQLCPPGITWLALAYLLSCLLASSKAKVFSRCELAKEMHDFGLDGYRGYNLADWVCLAYYTSGFNTNAVDHEADGSTNNGIFQISSRRWCRTLASNGPNLCRIYCTDLLNNDLKDSIVCAMKIVQEPLGLGYWEAWRHHCQGRDLSDWVDGCDF",glycan array binding signal (z-score),[1],-0.816
same,glycan array binding signal (z-score),[2],1.16
same,glycan array binding signal (z-score),[3],-0.933
same,glycan array binding signal (z-score),[4],0.327
same,glycan array binding signal (z-score),[5],0.72
same,glycan array binding signal (z-score),[6],0.227
same,glycan array binding signal (z-score),[7],-0.31
same,glycan array binding signal (z-score),[8],-1.25
same,glycan array binding signal (z-score),[9],-0.853
same,glycan array binding signal (z-score),[10],-0.163
same,glycan array binding signal (z-score),[11],-0.572
same,glycan array binding signal (z-score),[12],1.67
same,glycan array binding signal (z-score),[13],2.32
same,glycan array binding signal (z-score),[14],1.59
same,glycan array binding signal (z-score),[15],3.34
same,glycan array binding signal (z-score),[16],-0.837
same,glycan array binding signal (z-score),[17],0.191
same,glycan array binding signal (z-score),[18],0.367
same,glycan array binding signal (z-score),[19],-0.146
same,glycan array binding signal (z-score),[20],0.755
same,glycan array binding signal (z-score),[21],0.223
same,glycan array binding signal (z-score),[22],2.15
same,glycan array binding signal (z-score),[23],1.22
same,glycan array binding signal (z-score),[24],-0.557
same,glycan array binding signal (z-score),[25],-0.379
same,glycan array binding signal (z-score),[26],-0.467
same,glycan array binding signal (z-score),[27],-0.945
same,glycan array binding signal (z-score),[28],-1.13
same,glycan array binding signal (z-score),[29],-1.32
same,glycan array binding signal (z-score),[30],-0.792
same,glycan array binding signal (z-score),[31],0.362
same,glycan array binding signal (z-score),[32],-0.267
same,glycan array binding signal (z-score),[33],-0.696
same,glycan array binding signal (z-score),[34],-0.559
same,glycan array binding signal (z-score),[35],-1.82
same,glycan array binding signal (z-score),[36],0.094
same,glycan array binding signal (z-score),[37],0.269
same,glycan array binding signal (z-score),[38],0.884
same,glycan array binding signal (z-score),[39],-0.288
same,glycan array binding signal (z-score),[40],-1.05
same,glycan array binding signal (z-score),[41],0.518
same,glycan array binding signal (z-score),[42],-0.004
same,glycan array binding signal (z-score),[43],-0.352
same,glycan array binding signal (z-score),[44],-0.028
same,glycan array binding signal (z-score),[45],-0.4

# Random excerpt: two entries already listed, in no set order.
binder,measurement,setting,value
"SLLPI (Mus musculus), Q9D9X8 (protein) MGICMSMYTQVLVPVDADGDHHILWSRFYERWGSCFNPCAGLVNCLPPHSSALYLCHRMEARSRAPRRQLCPPGITWLALAYLLSCLLASSKAKVFSRCELAKEMHDFGLDGYRGYNLADWVCLAYYTSGFNTNAVDHEADGSTNNGIFQISSRRWCRTLASNGPNLCRIYCTDLLNNDLKDSIVCAMKIVQEPLGLGYWEAWRHHCQGRDLSDWVDGCDF",glycan array binding signal (z-score),[16],-0.837
same,glycan array binding signal (z-score),[2],1.16

# Source: the supplement of paper PMC8728848
